# Results: the supplement of paper PMC10849652
# Sequences of proteins named here, by UniProt entry; tags and fusion partners are left off. A change or cut given only in a name is not applied to a line headed by its entry.
# UniProt Q9Y613: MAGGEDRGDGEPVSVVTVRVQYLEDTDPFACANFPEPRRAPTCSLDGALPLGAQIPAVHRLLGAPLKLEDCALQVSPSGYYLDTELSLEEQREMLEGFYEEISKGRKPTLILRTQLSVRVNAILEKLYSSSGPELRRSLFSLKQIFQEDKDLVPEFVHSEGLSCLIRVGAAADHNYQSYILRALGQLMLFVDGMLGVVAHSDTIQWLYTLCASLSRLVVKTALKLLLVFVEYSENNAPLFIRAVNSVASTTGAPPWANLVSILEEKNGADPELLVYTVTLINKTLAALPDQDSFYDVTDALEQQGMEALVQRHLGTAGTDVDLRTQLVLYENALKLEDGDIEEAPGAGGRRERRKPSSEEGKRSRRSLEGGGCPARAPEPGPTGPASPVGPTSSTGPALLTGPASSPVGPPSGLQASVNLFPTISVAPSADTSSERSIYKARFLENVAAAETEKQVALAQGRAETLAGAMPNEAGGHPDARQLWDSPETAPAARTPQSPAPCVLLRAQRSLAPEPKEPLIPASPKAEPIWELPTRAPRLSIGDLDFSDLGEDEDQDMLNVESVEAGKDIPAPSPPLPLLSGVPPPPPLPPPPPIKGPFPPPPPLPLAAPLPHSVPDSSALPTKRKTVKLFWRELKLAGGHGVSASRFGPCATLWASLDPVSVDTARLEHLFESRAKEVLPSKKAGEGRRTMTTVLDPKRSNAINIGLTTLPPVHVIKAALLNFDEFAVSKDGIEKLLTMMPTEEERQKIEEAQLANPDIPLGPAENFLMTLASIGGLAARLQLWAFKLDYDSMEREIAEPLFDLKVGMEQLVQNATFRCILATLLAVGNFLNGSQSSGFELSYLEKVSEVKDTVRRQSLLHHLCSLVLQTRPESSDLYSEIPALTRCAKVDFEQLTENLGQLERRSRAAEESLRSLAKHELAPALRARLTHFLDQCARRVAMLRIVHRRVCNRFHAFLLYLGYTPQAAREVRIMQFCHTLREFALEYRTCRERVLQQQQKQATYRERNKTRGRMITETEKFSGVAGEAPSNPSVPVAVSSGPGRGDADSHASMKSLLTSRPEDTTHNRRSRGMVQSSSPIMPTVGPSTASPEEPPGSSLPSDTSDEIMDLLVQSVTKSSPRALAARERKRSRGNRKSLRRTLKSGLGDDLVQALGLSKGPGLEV
# UniProt P0C2W1: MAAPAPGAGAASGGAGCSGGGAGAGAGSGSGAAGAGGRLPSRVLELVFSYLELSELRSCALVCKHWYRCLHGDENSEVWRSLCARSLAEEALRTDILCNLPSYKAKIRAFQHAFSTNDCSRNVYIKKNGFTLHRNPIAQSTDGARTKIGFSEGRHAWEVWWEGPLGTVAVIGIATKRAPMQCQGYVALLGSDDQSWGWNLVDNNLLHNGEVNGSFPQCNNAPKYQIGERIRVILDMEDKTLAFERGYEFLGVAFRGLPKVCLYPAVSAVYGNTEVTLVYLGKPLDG
# UniProt Q00597: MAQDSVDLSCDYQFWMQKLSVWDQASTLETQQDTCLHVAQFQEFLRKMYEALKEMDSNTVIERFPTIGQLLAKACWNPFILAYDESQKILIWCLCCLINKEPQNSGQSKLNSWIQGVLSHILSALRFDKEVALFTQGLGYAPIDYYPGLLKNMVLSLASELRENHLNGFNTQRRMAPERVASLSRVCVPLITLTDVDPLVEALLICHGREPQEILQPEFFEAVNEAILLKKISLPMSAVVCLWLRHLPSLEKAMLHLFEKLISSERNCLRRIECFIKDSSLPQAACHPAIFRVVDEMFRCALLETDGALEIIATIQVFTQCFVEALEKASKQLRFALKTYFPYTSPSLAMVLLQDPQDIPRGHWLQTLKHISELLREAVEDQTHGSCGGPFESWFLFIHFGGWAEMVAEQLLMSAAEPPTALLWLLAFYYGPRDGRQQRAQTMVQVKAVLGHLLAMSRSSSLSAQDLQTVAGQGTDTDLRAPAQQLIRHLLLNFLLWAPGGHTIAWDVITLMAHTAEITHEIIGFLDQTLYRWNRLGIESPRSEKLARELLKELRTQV
# UniProt Q9NYQ8: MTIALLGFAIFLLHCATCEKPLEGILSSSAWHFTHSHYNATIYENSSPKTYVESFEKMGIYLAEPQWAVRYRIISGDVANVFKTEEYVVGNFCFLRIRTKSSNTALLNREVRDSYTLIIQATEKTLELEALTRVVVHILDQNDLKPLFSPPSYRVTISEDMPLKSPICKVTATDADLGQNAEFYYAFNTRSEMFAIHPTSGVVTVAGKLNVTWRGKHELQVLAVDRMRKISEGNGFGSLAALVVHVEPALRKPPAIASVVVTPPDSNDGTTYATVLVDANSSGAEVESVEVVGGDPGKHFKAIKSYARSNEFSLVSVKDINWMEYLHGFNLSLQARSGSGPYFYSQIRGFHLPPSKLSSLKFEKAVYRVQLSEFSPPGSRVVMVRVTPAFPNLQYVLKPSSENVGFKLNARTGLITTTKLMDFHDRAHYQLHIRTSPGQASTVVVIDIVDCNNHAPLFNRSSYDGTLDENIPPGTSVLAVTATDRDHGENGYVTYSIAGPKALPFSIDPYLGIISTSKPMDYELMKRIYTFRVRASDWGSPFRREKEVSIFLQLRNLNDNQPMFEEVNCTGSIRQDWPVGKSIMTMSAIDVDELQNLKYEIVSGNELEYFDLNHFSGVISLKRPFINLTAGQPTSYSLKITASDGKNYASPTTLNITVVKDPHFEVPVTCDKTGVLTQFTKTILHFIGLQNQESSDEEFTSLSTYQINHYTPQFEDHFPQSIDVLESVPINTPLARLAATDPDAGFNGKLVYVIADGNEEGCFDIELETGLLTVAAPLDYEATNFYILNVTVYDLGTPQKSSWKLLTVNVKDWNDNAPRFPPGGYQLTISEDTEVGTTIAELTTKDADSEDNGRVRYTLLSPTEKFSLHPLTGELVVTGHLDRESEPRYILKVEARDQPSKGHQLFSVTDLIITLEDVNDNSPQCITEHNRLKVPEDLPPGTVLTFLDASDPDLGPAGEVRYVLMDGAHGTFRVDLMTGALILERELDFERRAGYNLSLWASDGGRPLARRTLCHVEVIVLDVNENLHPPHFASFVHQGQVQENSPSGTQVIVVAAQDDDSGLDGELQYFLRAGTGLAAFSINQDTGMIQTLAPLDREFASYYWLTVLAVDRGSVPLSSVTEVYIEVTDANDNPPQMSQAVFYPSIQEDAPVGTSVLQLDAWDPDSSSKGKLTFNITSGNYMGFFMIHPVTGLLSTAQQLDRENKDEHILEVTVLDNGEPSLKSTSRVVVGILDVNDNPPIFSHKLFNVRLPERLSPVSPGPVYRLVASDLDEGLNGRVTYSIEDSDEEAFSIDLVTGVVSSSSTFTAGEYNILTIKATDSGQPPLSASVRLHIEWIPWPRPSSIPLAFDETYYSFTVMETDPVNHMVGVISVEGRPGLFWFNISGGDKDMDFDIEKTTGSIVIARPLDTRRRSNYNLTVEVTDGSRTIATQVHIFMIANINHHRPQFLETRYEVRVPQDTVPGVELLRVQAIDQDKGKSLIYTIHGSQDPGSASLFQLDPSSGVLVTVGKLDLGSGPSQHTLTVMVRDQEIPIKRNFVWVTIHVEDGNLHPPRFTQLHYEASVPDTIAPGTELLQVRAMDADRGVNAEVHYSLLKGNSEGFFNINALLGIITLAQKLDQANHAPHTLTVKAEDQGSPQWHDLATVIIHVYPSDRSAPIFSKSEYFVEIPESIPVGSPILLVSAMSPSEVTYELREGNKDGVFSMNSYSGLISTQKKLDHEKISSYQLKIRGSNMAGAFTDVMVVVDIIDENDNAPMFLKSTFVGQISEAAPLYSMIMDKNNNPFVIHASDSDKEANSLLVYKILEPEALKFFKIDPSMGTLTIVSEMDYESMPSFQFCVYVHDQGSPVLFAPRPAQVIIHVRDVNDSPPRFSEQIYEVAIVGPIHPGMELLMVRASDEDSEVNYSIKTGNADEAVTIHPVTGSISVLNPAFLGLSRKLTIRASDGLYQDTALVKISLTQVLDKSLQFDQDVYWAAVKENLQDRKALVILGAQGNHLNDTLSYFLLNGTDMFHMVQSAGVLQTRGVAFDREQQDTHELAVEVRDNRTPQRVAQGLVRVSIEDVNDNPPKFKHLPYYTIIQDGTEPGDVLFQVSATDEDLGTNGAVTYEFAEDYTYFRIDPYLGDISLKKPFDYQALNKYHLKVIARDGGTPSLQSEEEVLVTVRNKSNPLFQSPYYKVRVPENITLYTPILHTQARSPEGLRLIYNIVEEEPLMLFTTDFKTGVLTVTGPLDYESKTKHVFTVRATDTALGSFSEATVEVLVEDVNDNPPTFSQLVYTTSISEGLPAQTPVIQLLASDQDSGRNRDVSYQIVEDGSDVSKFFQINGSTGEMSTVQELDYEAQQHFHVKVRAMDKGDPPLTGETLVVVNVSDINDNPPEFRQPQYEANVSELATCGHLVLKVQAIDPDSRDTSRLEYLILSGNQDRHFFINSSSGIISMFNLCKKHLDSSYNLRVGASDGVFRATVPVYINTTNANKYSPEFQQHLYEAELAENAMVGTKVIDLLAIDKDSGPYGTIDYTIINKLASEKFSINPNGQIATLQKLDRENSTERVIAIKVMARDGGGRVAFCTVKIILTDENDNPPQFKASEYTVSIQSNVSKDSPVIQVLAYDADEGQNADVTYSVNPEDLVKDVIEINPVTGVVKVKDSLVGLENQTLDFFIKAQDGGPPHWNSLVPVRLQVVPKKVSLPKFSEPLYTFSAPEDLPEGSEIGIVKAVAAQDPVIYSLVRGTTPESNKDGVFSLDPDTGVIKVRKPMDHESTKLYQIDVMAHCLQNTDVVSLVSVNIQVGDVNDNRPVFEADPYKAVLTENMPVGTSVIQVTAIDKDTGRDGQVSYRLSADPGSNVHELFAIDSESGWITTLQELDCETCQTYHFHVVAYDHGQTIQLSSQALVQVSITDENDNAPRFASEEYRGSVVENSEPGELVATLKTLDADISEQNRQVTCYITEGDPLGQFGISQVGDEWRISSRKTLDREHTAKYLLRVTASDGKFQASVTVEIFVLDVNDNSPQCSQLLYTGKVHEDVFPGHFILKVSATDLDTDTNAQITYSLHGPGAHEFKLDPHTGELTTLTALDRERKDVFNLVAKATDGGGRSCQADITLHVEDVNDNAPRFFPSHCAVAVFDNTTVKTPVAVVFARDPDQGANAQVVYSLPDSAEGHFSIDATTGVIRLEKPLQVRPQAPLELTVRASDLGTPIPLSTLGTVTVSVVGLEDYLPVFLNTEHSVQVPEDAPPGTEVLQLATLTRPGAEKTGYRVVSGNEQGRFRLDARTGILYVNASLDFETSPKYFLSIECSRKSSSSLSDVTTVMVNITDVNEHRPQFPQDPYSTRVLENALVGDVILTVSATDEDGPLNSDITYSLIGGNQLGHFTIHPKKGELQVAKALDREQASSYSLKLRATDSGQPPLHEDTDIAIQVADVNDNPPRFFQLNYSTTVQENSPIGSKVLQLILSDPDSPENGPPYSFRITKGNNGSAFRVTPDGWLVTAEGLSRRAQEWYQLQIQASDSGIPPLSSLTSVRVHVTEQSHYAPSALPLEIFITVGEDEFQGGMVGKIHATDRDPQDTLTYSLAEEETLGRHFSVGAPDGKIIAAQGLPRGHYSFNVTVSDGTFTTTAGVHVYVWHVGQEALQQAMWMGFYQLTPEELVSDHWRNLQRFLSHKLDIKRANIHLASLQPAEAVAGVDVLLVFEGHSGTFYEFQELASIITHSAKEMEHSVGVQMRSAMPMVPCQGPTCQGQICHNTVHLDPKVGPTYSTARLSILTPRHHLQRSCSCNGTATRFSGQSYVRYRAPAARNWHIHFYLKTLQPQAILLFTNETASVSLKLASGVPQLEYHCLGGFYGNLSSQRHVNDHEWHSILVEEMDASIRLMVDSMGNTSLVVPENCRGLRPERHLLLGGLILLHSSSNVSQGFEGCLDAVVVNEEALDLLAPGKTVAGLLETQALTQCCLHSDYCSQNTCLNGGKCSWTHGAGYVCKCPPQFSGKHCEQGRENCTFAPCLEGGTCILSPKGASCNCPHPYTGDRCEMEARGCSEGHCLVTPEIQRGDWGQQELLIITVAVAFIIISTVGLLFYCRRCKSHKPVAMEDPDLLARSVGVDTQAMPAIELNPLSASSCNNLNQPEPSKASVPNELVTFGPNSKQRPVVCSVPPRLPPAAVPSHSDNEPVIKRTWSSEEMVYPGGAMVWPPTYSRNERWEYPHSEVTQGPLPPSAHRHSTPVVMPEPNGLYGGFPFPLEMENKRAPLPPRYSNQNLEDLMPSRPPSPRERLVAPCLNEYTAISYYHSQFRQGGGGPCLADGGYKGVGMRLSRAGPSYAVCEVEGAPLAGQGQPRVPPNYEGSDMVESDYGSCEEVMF
# The list shows a part of the results.
# Key:
# Test in all cases: log2 fold change, soluble protein after heating vs DMSO (PISA); higher = thermal stabilisation; K562 lysate, 10 uM; active = over 0.2 and 3.5 SD of the protein, either way, in both replicates (recomputed)
# lapatinib = compound: CS(=O)(=O)CCNCc1ccc(-c2ccc3ncnc(Nc4ccc(OCc5cccc(F)c5)c(Cl)c4)c3c2)o1 [lapatinib]
# In short: (§1)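 To prepare the extract, K562 pellets were dounce-homogenised in PBS pH 7.4 with 1 mM MgCl2, giving crude material at 1 mg/mL protein. This was treated with 10 μM compound for 30 min, then heated in aliquots for 3 min over 48°C-58°C before pooling and addition of NP-40 to 0.5% at 4°C. Centrifugation at 21,000xg for 90 min left soluble protein in the supernatant, which TMTpro 16plex LC-MS/MS quantified with equalised channel sums. Results are log-two fold changes in thermal stability compared with solvent controls, from duplicates.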
# pictilisib = compound: CS(=O)(=O)N1CCN(Cc2cc3nc(-c4cccc5[nH]ncc45)nc(N4CCOCC4)c3s2)CC1 [pictilisib]
# In short: as §1
# crizotinib = compound: C[C@@H](Oc1cc(-c2cnn(C3CCNCC3)c2)cnc1N)c1c(Cl)ccc(F)c1Cl [crizotinib]
# In short: as §1
# [1] = compound: C[C@H](C1=CC=C(C=C1)C(=O)NC2=C3C=CNC3=NC=C2)N
# In short: as §1
# duvelisib = compound: C[C@H](Nc1ncnc2nc[nH]c12)c1cc2cccc(Cl)c2c(=O)n1-c1ccccc1 [duvelisib]
# In short: as §1
# gandotinib = compound: Cc1cc(Nc2cc(CN3CCOCC3)c3nc(C)c(Cc4ccc(Cl)cc4F)n3n2)n[nH]1 [gandotinib]
# In short: as §1
# tozasertib = compound: Cc1cc(Nc2cc(N3CCN(C)CC3)nc(Sc3ccc(NC(=O)C4CC4)cc3)n2)n[nH]1 [tozasertib]
# In short: as §1
# doramapimod = compound: Cc1ccc(-n2nc(C(C)(C)C)cc2NC(=O)Nc2ccc(OCCN3CCOCC3)c3ccccc23)cc1 [doramapimod]
# In short: as §1
# bafetinib = compound: Cc1ccc(NC(=O)c2ccc(CN3CC[C@H](N(C)C)C3)c(C(F)(F)F)c2)cc1Nc1nccc(-c2cncnc2)n1 [bafetinib]
# In short: as §1
# [2] = compound: Cc1cccc(CC(=O)N2CCc3c2ccc(-c2cn(C)c4ncnc(N)c24)c3F)n1
# In short: as §1
# nilotinib = compound: Cc1cn(-c2cc(NC(=O)c3ccc(C)c(Nc4nccc(-c5cccnc5)n4)c3)cc(C(F)(F)F)c2)cn1 [nilotinib]
# In short: as §1
# [3] = compound: Cc1nc(Nc2n[nH]c3c2CN(C(=O)N[C@H](CN(C)C)c2ccccc2)C3(C)C)c2sccc2n1
# In short: as §1
# dasatinib = compound: Cc1nc(Nc2ncc(C(=O)Nc3c(C)cccc3Cl)s2)cc(N2CCN(CCO)CC2)n1 [dasatinib]
# In short: as §1
# [4] = compound: Cc1ncc(-c2ccnc(Nc3ccc(S(C)(=O)=O)cc3)n2)n1C(C)C
# In short: as §1
# [5] = compound: Cn1cc(-c2ccc3c(c2)CCN3C(=O)Cc2cccc(C(F)(F)F)c2)c2c(N)ncnc21
# In short: as §1
# quisinostat = compound: Cn1cc(CNCC2CCN(c3ncc(C(=O)NO)cn3)CC2)c2ccccc21 [quisinostat]
# In short: as §1
# tipifarnib = compound: Cn1cncc1[C@@](N)(c1ccc(Cl)cc1)c1ccc2c(c1)c(-c1cccc(Cl)c1)cc(=O)n2C [tipifarnib]
# In short: as §1
# [6] = compound: NC(=O)Nc1cc(-c2cccc(F)c2)sc1C(=O)N[C@H]1CCCNC1
# In short: as §1
# [7] = compound: NC(=O)c1cnc(N[C@@H]2CCCC[C@@H]2N)nc1Nc1cccc(-n2nccn2)c1
# In short: as §1
# [8] = compound: NC1(c2ccc(-c3nc4ccn5c(=O)[nH]nc5c4cc3-c3ccccc3)cc2)CCC1
# In short: as §1
Target,log2 fold change (lapatinib),log2 fold change (pictilisib),log2 fold change (crizotinib),log2 fold change [1],log2 fold change (duvelisib),log2 fold change (gandotinib),log2 fold change (tozasertib),log2 fold change (doramapimod),log2 fold change (bafetinib),log2 fold change [2],log2 fold change (nilotinib),log2 fold change [3],log2 fold change (dasatinib),log2 fold change [4],log2 fold change [5],log2 fold change (quisinostat),log2 fold change (tipifarnib),log2 fold change [6],log2 fold change [7],log2 fold change [8]
FHOD1 (UniProt Q9Y613),inactive: -0.018,inactive: -0.011,inactive: -0.014,inactive: 0.017,inactive: -0.023,inactive: -0.141,inactive: 0.008,inactive: 0.045,inactive: -0.063,inactive: 0.035,inactive: 0.005,inactive: 0.017,inactive: -0.05,inactive: -0.007,inactive: 0.002,inactive: 0.017,inactive: -0.017,inactive: 0.039,inactive: 0.014,inactive: 0.023
FARSB (UniProt Q9NSD9),inactive: 0.003,inactive: -0.014,inactive: -0.033,inactive: 0.007,inactive: 0.021,inactive: -0.053,inactive: -0.014,inactive: 0.033,inactive: -0.005,inactive: -0.001,inactive: -0.019,inactive: -0.005,inactive: -0.019,inactive: 0.006,inactive: 0.032,inactive: -0.001,inactive: 0.02,inactive: 0.027,inactive: 0.002,inactive: -0.014
FBXO45 (UniProt P0C2W1),inactive: -0.067,inactive: -0.034,inactive: -0.123,inactive: -0.081,–,inactive: -0.031,inactive: 0.115,inactive: 0.017,inactive: -0.272,inactive: 0.091,inactive: 0.025,inactive: 0.028,–,inactive: -0.088,–,inactive: -0.006,inactive: -0.011,inactive: 0.008,inactive: 0.147,inactive: -0.002
FMNL3 (UniProt Q8IVF7),inactive: 0.073,inactive: 0.105,–,–,–,–,–,–,inactive: -0.15,–,–,–,–,–,–,–,–,–,inactive: -0.031,–
FAT1 (UniProt Q14517),inactive: -0.129,–,inactive: -0.109,inactive: 0.079,–,inactive: 0.027,inactive: -0.139,inactive: 0.475,–,inactive: 0.072,–,–,–,–,–,active: 0.572,–,inactive: -0.105,inactive: -0.017,inactive: -0.071
FANCC (UniProt Q00597),inactive: -0.101,–,inactive: 0.104,–,–,–,–,inactive: -0.04,–,–,–,–,–,–,–,inactive: 0.001,–,inactive: 0.142,inactive: -0.281,inactive: -0.452
FAT2 (UniProt Q9NYQ8),inactive: -0.027,inactive: -0.015,inactive: -0.512,inactive: -0.366,–,inactive: 0.182,inactive: 0.055,inactive: -0.094,inactive: -0.244,inactive: 0.407,inactive: -0.086,inactive: 0.086,–,inactive: 0.014,–,active: -0.978,inactive: -0.028,inactive: 0.36,inactive: 0.025,inactive: -0.087
FBXW11 (UniProt Q9UKB1),inactive: 0.065,inactive: 0.007,inactive: -0.016,inactive: 0.025,inactive: 0.163,inactive: -0.1,inactive: 0.04,inactive: 0.037,inactive: -0.09,inactive: -0.296,–,–,inactive: -0.068,–,inactive: 0.019,inactive: 0.021,–,inactive: -0.02,inactive: -0.095,inactive: 0.141
FMR1 isoform 9 (UniProt Q06787),inactive: 0.018,inactive: -0.209,inactive: -0.001,–,inactive: 0.065,–,–,inactive: -0.107,inactive: 0.532,–,–,–,inactive: 0.146,–,inactive: -0.013,inactive: 0.206,–,inactive: -0.065,inactive: -0.119,inactive: 0.15
FAXDC2 (UniProt Q96IV6),inactive: 0.04,–,inactive: -0.016,inactive: 0.004,inactive: -0.034,inactive: -0.033,inactive: 0.098,inactive: 0.014,–,inactive: 0.201,–,–,inactive: 0.002,–,inactive: 0.08,inactive: -0.129,–,inactive: 0.055,inactive: 0.225,inactive: 0.129
FHAD1 isoform 3 (UniProt B1AJZ9),inactive: -0.145,–,–,–,inactive: 0.013,–,inactive: -0.024,–,–,–,–,–,inactive: 0.059,–,inactive: -0.015,–,–,–,inactive: 0.042,inactive: -0.168
FBXO11 isoform 5 (UniProt Q86XK2),inactive: 0.108,inactive: -0.173,inactive: -0.003,inactive: -0.015,inactive: -0.086,inactive: -0.04,–,inactive: -0.013,inactive: 0.136,inactive: -0.017,inactive: 0.012,inactive: -0.057,inactive: -0.023,inactive: 0.039,inactive: 0.029,inactive: -0.109,inactive: 0.072,inactive: 0.054,inactive: -0.012,inactive: -0.032

# Shown bar-delimited: entries from further up
Target | log2 fold change (lapatinib) | log2 fold change (pictilisib) | log2 fold change (crizotinib) | log2 fold change [1] | log2 fold change (duvelisib) | log2 fold change (gandotinib) | log2 fold change (tozasertib) | log2 fold change (doramapimod) | log2 fold change (bafetinib) | log2 fold change [2] | log2 fold change (nilotinib) | log2 fold change [3] | log2 fold change (dasatinib) | log2 fold change [4] | log2 fold change [5] | log2 fold change (quisinostat) | log2 fold change (tipifarnib) | log2 fold change [6] | log2 fold change [7] | log2 fold change [8]
FAT2 (UniProt Q9NYQ8) | inactive: -0.027 | inactive: -0.015 | inactive: -0.512 | inactive: -0.366 | – | inactive: 0.182 | inactive: 0.055 | inactive: -0.094 | inactive: -0.244 | inactive: 0.407 | inactive: -0.086 | inactive: 0.086 | – | inactive: 0.014 | – | active: -0.978 | inactive: -0.028 | inactive: 0.36 | inactive: 0.025 | inactive: -0.087
FBXW11 (UniProt Q9UKB1) | inactive: 0.065 | inactive: 0.007 | inactive: -0.016 | inactive: 0.025 | inactive: 0.163 | inactive: -0.1 | inactive: 0.04 | inactive: 0.037 | inactive: -0.09 | inactive: -0.296 | – | – | inactive: -0.068 | – | inactive: 0.019 | inactive: 0.021 | – | inactive: -0.02 | inactive: -0.095 | inactive: 0.141
